Assay results: article PMC9377797, “Hypoxia-induced proteasomal degradation of DBC1 by SIAH2 in breast cancer progression” (eLife, 2022)
These are yes or no findings as the source states them, for the method shown. For some assays here: In cells and extracts the contact can be indirect. Some entries that bind do so weakly or less than the wild type. For some assays here: Where a sequence is shown, tags or fusion partners need not be part of it.

Protein sequences, listed by entry. Tags and fused reporters are not part of them. Lines headed by an entry give the natural chain unless they say otherwise; changes in a name come on top.
UniProt Q8N163: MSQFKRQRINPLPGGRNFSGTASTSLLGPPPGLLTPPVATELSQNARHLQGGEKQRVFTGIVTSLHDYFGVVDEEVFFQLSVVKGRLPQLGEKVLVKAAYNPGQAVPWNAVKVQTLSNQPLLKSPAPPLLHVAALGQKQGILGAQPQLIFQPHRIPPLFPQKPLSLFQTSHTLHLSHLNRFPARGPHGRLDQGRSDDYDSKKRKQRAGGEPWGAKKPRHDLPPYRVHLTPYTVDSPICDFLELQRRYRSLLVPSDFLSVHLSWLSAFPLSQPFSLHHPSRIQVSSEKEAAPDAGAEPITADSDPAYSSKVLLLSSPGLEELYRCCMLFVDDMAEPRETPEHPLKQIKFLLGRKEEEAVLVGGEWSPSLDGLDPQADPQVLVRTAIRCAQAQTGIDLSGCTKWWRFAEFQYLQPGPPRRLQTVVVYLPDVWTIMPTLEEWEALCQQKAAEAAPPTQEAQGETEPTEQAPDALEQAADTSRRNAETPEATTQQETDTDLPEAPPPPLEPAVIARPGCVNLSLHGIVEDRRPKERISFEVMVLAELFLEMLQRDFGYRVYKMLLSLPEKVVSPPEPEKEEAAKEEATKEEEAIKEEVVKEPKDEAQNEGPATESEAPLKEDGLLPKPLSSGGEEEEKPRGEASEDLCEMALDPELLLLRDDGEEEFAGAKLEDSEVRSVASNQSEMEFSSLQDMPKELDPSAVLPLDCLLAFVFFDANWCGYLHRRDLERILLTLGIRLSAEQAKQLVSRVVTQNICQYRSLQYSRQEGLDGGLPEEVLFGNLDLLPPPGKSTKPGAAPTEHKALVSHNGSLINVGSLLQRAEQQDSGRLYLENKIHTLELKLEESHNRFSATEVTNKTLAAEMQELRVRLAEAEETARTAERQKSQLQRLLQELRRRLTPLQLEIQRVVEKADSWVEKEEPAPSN

Key:
GST-SIAH2 (human) = biological target: T1, GST-SIAH2 (human) (UniProt O43255); experiment: pull-down; GST-SIAH2 and His-DBC1 proteins from E. coli incubated in vitro overnight, GST beads for 2 hr at 4°C; blotted with an anti-DBC1 antibody; both purified
T1 sequence: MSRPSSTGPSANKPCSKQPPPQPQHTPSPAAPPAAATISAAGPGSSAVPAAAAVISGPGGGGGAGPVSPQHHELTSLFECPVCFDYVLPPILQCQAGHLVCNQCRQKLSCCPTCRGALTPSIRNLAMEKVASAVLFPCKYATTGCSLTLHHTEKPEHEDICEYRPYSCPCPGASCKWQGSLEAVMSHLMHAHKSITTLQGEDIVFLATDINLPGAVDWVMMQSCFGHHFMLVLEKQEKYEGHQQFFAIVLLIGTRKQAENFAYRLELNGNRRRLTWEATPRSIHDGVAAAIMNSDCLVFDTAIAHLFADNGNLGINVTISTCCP

Myc-DBC1 (human) = Myc-DBC1 (human) (UniProt Q8N163); experiment: co-IP; transfected HEK293T cells; IP lysis buffer (150 mM NaCl, 20 mM Tris pH 7.4, 1 mM EGTA, 1 mM EDTA, 1% NP-40, 10% glycerol); immunoprecipitation with anti-Flag or anti-Myc antibody overnight at 4°C, Western blotting
His-DBC1 (human) = His-DBC1 (human) (UniProt Q8N163); experiment: pull-down; purified His-tagged DBC1 used for His affinity isolation of endogenous OTUD5 from MCF7 cell lysates; blotted with an anti-OTUD5 antibody; only the target purified
[1] = biological target: endogenous DBC1 (human (endogenous in MDA-MB-231, MCF10A, MCF7, HEK293T)) (UniProt Q8N163); experiment: co-IP; endogenous proteins in MDA-MB-231, MCF10A or MCF7 cells; normoxia or hypoxia, MG132 (10 μM), in some experiments doramapimod (1 μM) or SIAH2 knockout; immunoprecipitation with anti-DBC1 antibody, Western blotting

With “C-terminal half of His-DBC1 (462–923) (from UniProt Q8N163 462-923) (domain or fragment)” the binding (GST-SIAH2 (human)) was “no binding”.

B1: Flag-OTUD5 (enzyme, UniProt Q96G74 1-571)
chain: MTILPKKKPPPPDADPANEPPPPGPMPPAPRRGGGVGVGGGGTGVGGGDRDRDSGVVGARPRASPPPQGPLPGPPGALHRWALAVPPGAVAGPRPQQASPPPCGGPGGPGGGPGDALGAAAAGVGAAGVVVGVGGAVGVGGCCSGPGHSKRRRQAPGVGAVGGGSPEREEVGAGYNSEDEYEAAAARIEAMDPATVEQQEHWFEKALRDKKGFIIKQMKEDGACLFRAVADQVYGDQDMHEVVRKHCMDYLMKNADYFSNYVTEDFTTYINRKRKNNCHGNHIEMQAMAEMYNRPVEVYQYSTGTSAVEPINTFHGIHQNEDEPIRVSYHRNIHYNSVVNPNKATIGVGLGLPSFKPGFAEQSLMKNAIKTSEESWIEQQMLEDKKRATDWEATNEAIEEQVARESYLQWLRDQEKQARQVRGPSQPRKASATCSSATAAASSGLEEWTSRSPRQRSSASSPEHPELHAELGMKPPSPGTVLALAKPPSPCAPGTSSQFSAGADRATSPLVSLYPALECRALIQQMSPSAFGLNDWDDDEILASVLAVSQQEYLDSMKKNKVHRDPPPDKS
B1 was tested, and the binding (Myc-DBC1 (human)) was “binds”.

B2: endogenous OTUD5 (enzyme, UniProt Q96G74 1-571)
chain: B1 chain
B2 was tested, and the binding (His-DBC1 (human)) was “binds” and the binding [1] was “binds”.

B3: GST-SIAH2 (enzyme, human, UniProt O43255 1-324, looked up)
chain: T1 sequence
notes: E3 ubiquitin ligase SIAH2, human, wild type; also called GST-tagged SIAH2; purified glutathione S-transferase (GST) SIAH2; source: E. coli BL21, purified
B3 was tested, and the binding [1] was “binds”.
